Here are results for 24 sequences from the supplement of paper PMC10338343.

± gives the standard deviation. Some of the results follow. Many of these values have a large error.

The experiment deals with EfPiwi piRISC loaded with L1MC piRNA (26 nt). Kind of experiment: pre-steady-state target cleavage rate (min^-1); guide: L1MC piRNA 5'p-UAACUAAAUACUAUGCAAGCUGUAGG; MIWI and MILI are mouse PIWI proteins and EfPiwi is from a freshwater sponge; tags in brackets are library labels; higher = faster piRNA-guided slicing of the target. As to conditions: auxiliary factor: 500 nM Ephydatia muelleri Gtsf1. Put shortly: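 In HEPES–potassium acetate buffer at 33 °C, […] transcribed, DNA-blocked target RNA library was mixed with 1 nM active affinity-purified piRISC carrying one synthetic guide, with or without 500 nM GTSF1 partner protein, for 0–8 or 0–960 min. Uncleaved targets were sequenced and normalised to depth and to weakly complementary targets; three trials were pooled and k3 was capped at 0.0001 min^-1. The pre-steady-state cleavage rate followed from a burst-and-steady-state fit.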
For UCCUGGAUGUCGUCUGCAUAGUAUUUAGUUA, the “pre-steady-state target cleavage rate” value came out at 0.00907 ± 0.0032. In the case of UCCUGGUACAGCUUGCAUAGUUUUUACAAA, the “pre-steady-state target cleavage rate” value came to 0.00111 ± 0.003. Under UCCUGGAUGUCGAAGCAUAGUAUUAGUUA stands 0.000213 ± 0.01. Under UCCUGGUUGUGCUUGCAUAGUAUUUUCAAA stands 0.00114 ± 0.0044; under UCCUGGAACAGCAACCAUAGUAUUUAGUUA, 0.00435 ± 0.0049. As to UCCUGGAUGUCGAACCAUAUGUAUUUAGUUA, the “pre-steady-state target cleavage rate” value was 0.000252 ± 0.023. The value for UCCUGGAACAGCUUGCAUAGUUAAUACAAA was 0.00174 ± 0.0047. For UCCUGGAUGUCGAACGUUACAAUUUAGUUA, the “pre-steady-state target cleavage rate” value was < 0.0001.

UCCUGGAUGUGCUACCAUAGUAUUUAGAAA: the “pre-steady-state target cleavage rate” value worked out at 0.00141 ± 0.0064. As for UCCUGGAUGUCGAUGCCAUAGUAUUUAGUUA, the “pre-steady-state target cleavage rate” value was 0.00138 ± 0.0074. The value for UCCUCCUACAGCUUCGAUAGUAUUUAGUUA was 0.0137 ± 0.0042; that for UCCUGGAUGUCGUUGCCUAGUAUUUAGUUA was 0.00172 ± 0.0037. Take UCCUGGAUGUCGAAGCAUAGUAUUAAGAUA: the “pre-steady-state target cleavage rate” value came out at 0.000738 ± 0.0086. The value for UCCUGGAACAGCUUGCAUAGUAUUUAUUA was 0.00302 ± 0.003. As for UCCUGGAUGUCCUUGCUUACUAUUUAGUUA, the “pre-steady-state target cleavage rate” value turned out to be 0.00119 ± 0.0085. As for UCCUGGAACAGCAAGCAUAGUAUUUAGAAA, the “pre-steady-state target cleavage rate” value was determined as 0.00309 ± 0.002. Consider “UCCUGGAUGUCGUUGCAUUCAUAAAUCAAA [g13:g18:cont:t1A]”, for which the “pre-steady-state target cleavage rate” value was found to be 0.000152 ± 0.017. Under UCCUGCUACAGCUUGCAUAGUUAAUUCAAA stands 0.00202 ± 0.0038; under UCCUGGUACAGCUUGCAUAGAUAUUUAGUUA, 0.00235 ± 0.004; under UCCUGGAUGUCGAAGCAUAGUAUAUAGAUA, 0.000611 ± 0.011.

In the case of UCCUGGUACAGCAAGCAUAGUAUUUACAAA, the “pre-steady-state target cleavage rate” value is 0.000402 ± 0.013. The value for UCCUGCUACAGCAACCAUAGUAUUUAGUUA was 0.000802 ± 0.0057; that for UCCUCCUACUGCUUGCAUAGUAUUUUCAAA was 0.00274 ± 0.0026; that for UCCUGCUACAGCUACCAUAGUAUUUAGUUA was 0.00308 ± 0.0021.
